Experimental data reported in doi:10.1101/2021.09.29.461190.
No constants are given. Whether binding was seen depends on the method and setting. Binding seen in cells or lysates may run through a third protein. Some binding calls cover weakened binding; strength is not graded here. Where a sequence is shown, tags or fusion partners need not be part of it.

Chains of the proteins cited; added tags and fusions are not shown. Lines headed by an entry give the natural chain unless they say otherwise; changes in a name come on top. A line that says so, or that is headed by a name, gives the form on record, which may keep a tag or linker.
UniProt O04157: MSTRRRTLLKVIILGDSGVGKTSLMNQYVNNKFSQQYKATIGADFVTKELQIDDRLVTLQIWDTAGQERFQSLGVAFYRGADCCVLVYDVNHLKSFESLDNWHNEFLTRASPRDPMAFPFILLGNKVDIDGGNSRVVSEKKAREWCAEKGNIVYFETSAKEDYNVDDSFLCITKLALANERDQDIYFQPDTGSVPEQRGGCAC
RFP-RABG3b constitutive active (CA) (O04157, form named): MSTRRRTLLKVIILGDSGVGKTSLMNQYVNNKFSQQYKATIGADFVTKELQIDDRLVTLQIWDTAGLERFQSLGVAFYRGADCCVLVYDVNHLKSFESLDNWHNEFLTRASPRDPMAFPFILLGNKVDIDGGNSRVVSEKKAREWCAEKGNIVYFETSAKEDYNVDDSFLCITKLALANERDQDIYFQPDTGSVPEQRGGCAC
RFP-RABG3b dominant-negative (DN) (O04157, form named): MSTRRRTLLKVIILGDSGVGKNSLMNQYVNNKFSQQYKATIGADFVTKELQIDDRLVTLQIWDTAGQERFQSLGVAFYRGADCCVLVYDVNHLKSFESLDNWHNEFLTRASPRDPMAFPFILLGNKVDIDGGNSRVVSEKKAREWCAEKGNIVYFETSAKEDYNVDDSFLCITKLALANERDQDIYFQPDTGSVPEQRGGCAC

Target: T1, NET4A-GFP (Arabidopsis thaliana) (UniProt F4KEW8)
T1 sequence: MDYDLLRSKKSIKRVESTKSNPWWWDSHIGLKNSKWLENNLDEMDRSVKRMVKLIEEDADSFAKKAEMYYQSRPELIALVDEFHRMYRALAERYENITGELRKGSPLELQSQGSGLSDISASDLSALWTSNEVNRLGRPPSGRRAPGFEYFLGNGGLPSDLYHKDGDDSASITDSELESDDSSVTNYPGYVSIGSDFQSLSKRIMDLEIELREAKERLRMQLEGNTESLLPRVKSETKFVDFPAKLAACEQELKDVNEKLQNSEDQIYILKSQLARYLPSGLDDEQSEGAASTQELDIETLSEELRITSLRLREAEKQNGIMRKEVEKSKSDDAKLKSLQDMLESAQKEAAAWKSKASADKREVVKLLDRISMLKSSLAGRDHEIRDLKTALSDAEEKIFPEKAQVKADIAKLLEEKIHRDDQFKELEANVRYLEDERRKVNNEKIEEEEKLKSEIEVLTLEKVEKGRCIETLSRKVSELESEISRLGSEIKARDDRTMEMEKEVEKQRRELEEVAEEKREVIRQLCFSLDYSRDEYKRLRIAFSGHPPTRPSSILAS
Assay: co-IP

Substance | binding
RFP-RABG3b wild type (from UniProt O04157 1-203) | binds
RFP-RABG3b constitutive active (CA) (from UniProt O04157 1-203) | binds
RFP-RABG3b dominant-negative (DN) (from UniProt O04157 1-203) | no binding
